These are yes or no findings as the source states them, for the method shown. For part of these data: Binding calls can cover weak binding; strength is not graded here. For part of these data: Where a sequence is shown, tags or fusion partners need not be part of it.
T1: PLCγ1 cSH2 domain, wild type (human)
T1 sequence (P19174 whole entry, looked up): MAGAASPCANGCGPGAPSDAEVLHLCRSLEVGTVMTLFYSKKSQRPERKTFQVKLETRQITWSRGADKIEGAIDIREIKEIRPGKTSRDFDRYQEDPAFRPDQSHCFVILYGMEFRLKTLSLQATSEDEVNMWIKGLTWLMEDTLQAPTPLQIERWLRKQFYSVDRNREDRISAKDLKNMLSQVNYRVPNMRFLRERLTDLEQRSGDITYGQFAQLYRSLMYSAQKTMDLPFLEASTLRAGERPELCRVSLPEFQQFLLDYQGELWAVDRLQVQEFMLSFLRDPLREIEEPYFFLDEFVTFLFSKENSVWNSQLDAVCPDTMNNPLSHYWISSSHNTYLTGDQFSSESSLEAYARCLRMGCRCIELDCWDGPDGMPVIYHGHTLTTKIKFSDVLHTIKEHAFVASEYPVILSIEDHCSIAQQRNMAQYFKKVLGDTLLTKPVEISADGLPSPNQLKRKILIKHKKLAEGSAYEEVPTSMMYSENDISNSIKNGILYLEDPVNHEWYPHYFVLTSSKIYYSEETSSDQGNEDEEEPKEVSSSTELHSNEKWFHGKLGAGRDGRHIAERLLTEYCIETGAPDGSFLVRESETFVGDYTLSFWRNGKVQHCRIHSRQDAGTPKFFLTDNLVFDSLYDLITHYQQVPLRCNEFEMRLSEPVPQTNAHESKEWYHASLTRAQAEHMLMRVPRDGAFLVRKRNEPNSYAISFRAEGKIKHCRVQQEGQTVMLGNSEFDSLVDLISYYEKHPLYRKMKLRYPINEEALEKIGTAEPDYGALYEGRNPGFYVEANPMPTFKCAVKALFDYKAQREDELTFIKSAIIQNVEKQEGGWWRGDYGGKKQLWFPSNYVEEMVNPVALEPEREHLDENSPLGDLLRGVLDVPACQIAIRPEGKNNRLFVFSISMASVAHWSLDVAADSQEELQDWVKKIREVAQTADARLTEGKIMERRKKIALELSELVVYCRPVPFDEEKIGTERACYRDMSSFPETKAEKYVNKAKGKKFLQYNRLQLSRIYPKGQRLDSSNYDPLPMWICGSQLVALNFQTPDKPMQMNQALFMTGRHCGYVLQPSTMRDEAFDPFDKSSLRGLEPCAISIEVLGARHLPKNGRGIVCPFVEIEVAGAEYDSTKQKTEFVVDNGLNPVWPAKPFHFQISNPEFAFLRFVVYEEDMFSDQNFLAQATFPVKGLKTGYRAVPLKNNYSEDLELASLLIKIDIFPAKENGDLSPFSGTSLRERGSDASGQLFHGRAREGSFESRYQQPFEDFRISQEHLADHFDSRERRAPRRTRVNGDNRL

B1: PLCγ1-derived phosphopeptide from the cSH2-SH3 linker (779NPGFpYVEANPMP790) (peptide)
peptide: NPGFYVEANPMP
modifications: phosphotyrosine at 783 (fifth residue of the peptide)
B2: PLCγ1 PLC-core (residues 13−1215, Δ488–933, H335A) (domain or fragment, UniProt P19174)
chain: GPGAPSDAEVLHLCRSLEVGTVMTLFYSKKSQRPERKTFQVKLETRQITWSRGADKIEGAIDIREIKEIRPGKTSRDFDRYQEDPAFRPDQSHCFVILYGMEFRLKTLSLQATSEDEVNMWIKGLTWLMEDTLQAPTPLQIERWLRKQFYSVDRNREDRISAKDLKNMLSQVNYRVPNMRFLRERLTDLEQRSGDITYGQFAQLYRSLMYSAQKTMDLPFLEASTLRAGERPELCRVSLPEFQQFLLDYQGELWAVDRLQVQEFMLSFLRDPLREIEEPYFFLDEFVTFLFSKENSVWNSQLDAVCPDTMNNPLSHYWISSSANTYLTGDQFSSESSLEAYARCLRMGCRCIELDCWDGPDGMPVIYHGHTLTTKIKFSDVLHTIKEHAFVASEYPVILSIEDHCSIAQQRNMAQYFKKVLGDTLLTKPVEISADGLPSPNQLKRKILIKHKKLAEGSAYEEVPTSMMYSENDISDARLTEGKIMERRKKIALELSELVVYCRPVPFDEEKIGTERACYRDMSSFPETKAEKYVNKAKGKKFLQYNRLQLSRIYPKGQRLDSSNYDPLPMWICGSQLVALNFQTPDKPMQMNQALFMTGRHCGYVLQPSTMRDEAFDPFDKSSLRGLEPCAISIEVLGARHLPKNGRGIVCPFVEIEVAGAEYDSTKQKTEFVVDNGLNPVWPAKPFHFQISNPEFAFLRFVVYEEDMFSDQNFLAQATFPVKGLKTGYRAVPLKNNYSEDLELASLLIKIDIFPAK

Tests used:
[1] = target: T1, PLCγ1 cSH2 domain, wild type (human); assay: NMR titration; binding of phosphopeptides to the SH2 domains of PLCγ1 (Figure S5); 25°C; both purified
[2] = target: PLCγ1 split PH (spPH) domain (human); assay: NMR titration; 15N-labelled spPH, nSH2 or cSH2 domain observed by 1H-15N HSQC, unlabelled PLC-core (H335A) added up to 1:1; 25°C; for cSH2 then the phosphopeptide NPGFpYVEANPMP to 1:1:1; both purified
[3] = target: PLCγ1 nSH2 domain (human); assay: as above

Binder | binding [1] | binding [2] | binding [3]
B1 | binds |  | 
B2 |  | no binding | no binding

— article PMC3532599, “Structural and Functional Integration of the PLCγ Interaction Domains Critical for Regulatory Mechanisms and Signaling Deregulation” (Structure(London, England:1993), 2012)
